Test results taken from patent US10442791B2, “DNA-PK inhibitors” (Vertex Pharmaceuticals Incorporated, priority 2012, dated 2019).
Some results were stated once for a whole list of compounds, not compound by compound.

By UniProt entry, the sequences of proteins in these tests, tags left out.
UniProt P78527, whole entry: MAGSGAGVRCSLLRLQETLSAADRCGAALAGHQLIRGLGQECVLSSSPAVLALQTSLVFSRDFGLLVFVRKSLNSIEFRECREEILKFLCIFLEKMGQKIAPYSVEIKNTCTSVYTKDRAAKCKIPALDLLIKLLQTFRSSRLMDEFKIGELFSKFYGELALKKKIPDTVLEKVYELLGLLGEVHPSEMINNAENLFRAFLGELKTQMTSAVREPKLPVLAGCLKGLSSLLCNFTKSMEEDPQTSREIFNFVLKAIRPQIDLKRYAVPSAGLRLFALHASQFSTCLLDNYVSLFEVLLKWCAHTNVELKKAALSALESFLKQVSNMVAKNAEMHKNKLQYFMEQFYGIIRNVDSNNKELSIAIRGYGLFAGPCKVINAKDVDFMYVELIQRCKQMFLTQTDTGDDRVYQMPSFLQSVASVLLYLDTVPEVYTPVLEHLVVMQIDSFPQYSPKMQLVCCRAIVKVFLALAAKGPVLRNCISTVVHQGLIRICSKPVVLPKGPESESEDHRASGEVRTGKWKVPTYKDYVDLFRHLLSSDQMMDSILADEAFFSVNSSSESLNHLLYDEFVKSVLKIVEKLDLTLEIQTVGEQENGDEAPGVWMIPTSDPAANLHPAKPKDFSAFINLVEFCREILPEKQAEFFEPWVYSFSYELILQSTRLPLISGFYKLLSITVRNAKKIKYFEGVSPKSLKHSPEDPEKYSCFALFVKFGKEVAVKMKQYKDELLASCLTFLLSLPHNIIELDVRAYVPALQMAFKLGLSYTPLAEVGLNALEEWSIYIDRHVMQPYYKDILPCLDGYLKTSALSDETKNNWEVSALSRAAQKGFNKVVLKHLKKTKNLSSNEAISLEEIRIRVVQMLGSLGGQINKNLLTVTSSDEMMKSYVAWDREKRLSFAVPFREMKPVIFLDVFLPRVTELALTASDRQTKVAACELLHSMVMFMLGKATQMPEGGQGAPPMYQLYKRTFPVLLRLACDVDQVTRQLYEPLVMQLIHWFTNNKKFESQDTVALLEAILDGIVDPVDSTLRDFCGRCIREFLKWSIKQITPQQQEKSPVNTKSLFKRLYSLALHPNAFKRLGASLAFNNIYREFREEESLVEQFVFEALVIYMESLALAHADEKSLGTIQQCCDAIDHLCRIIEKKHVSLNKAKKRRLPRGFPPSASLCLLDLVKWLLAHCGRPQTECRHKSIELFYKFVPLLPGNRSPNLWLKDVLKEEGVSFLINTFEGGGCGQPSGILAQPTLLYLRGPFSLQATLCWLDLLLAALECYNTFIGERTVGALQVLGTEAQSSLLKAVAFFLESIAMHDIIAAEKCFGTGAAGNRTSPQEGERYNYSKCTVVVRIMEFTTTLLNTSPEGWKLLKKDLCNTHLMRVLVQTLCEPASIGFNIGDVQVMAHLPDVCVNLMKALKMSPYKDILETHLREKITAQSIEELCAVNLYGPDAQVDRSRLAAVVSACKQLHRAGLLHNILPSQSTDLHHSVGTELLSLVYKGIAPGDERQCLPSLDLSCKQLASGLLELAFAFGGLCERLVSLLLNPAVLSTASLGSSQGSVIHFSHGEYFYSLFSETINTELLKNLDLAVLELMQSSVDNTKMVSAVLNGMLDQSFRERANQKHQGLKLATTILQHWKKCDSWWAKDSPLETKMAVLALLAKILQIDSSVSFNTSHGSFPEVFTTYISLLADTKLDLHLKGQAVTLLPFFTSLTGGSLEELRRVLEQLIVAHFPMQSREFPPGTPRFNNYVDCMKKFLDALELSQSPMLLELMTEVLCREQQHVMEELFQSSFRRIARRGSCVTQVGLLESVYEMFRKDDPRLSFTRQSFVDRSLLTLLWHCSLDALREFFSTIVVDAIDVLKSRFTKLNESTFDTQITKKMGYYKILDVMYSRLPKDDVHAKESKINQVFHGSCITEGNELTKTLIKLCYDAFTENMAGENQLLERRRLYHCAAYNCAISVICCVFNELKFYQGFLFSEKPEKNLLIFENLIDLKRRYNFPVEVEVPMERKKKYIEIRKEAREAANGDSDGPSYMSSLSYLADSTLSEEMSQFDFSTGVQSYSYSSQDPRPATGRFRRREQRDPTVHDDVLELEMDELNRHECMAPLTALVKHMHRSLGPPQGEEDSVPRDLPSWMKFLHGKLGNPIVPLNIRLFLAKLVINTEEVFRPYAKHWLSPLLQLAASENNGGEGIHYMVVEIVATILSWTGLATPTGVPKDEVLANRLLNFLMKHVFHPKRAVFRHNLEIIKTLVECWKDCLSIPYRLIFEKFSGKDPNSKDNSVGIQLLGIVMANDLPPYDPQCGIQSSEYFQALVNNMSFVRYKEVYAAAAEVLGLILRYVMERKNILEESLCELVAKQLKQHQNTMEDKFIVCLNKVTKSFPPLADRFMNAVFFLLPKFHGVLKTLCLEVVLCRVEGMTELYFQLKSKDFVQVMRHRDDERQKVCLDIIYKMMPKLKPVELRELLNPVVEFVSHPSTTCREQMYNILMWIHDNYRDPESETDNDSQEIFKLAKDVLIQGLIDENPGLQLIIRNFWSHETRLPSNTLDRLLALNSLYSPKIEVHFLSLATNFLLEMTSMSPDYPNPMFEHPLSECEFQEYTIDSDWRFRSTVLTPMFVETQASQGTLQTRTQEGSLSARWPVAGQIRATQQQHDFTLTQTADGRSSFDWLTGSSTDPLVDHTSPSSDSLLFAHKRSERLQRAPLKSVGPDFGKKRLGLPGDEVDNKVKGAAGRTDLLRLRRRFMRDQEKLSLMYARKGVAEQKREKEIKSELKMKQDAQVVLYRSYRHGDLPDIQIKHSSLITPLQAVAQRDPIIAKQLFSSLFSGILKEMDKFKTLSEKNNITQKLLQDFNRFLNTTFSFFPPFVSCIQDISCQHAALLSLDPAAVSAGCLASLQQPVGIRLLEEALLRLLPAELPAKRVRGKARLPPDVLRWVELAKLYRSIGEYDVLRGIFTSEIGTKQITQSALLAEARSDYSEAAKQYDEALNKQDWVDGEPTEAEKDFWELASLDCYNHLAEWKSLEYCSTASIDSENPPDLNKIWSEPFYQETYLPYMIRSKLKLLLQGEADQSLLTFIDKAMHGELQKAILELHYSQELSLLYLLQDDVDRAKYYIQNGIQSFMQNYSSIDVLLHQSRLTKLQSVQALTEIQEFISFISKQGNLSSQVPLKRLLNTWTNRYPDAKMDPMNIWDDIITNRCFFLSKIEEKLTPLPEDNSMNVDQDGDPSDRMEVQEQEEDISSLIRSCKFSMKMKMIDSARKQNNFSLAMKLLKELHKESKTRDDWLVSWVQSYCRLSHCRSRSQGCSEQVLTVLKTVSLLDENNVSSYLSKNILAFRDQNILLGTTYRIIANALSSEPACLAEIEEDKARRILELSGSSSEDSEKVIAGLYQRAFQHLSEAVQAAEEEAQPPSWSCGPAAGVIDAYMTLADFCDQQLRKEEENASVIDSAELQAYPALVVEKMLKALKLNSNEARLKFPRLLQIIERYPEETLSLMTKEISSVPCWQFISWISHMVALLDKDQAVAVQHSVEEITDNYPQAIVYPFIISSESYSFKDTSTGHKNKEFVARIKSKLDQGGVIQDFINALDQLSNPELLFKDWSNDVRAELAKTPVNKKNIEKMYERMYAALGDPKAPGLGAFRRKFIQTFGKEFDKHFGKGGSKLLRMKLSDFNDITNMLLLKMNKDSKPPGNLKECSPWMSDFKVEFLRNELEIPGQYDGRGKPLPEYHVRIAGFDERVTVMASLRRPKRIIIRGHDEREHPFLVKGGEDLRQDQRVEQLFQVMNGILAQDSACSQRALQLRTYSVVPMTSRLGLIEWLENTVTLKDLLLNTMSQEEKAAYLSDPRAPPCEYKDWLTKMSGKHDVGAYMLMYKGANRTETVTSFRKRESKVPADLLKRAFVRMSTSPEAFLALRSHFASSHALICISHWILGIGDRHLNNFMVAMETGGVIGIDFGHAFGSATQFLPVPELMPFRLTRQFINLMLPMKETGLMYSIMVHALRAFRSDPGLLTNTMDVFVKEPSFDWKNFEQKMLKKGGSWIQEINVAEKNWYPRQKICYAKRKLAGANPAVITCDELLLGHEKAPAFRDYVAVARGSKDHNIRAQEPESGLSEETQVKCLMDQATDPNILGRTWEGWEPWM

These compounds were tested against DNA-PK (Homo sapiens, UniProt P78527) (assay: DNA-PK inhibition assay (radiometric 33P-ATP kinase assay)). Conditions: 100 μM ATP; competitive tight-binding fit.
Type: biochemical

Ki, ≤ 300 nM:
Cc1ccc(-c2cc(NCC(C)c3ccccc3OCC3CCCO3)ncn2)cn1 (stereo not shown) [Compound 195]
Cc1ccc(-c2cc(NCC(C)c3ccccc3OCc3cccnc3)ncn2)cn1 (stereo not shown) [Compound 190]
CNC(=O)c1ccc(C(C)CNc2cc(-c3ccc4c(c3)c(C)nn4C3COC3)ncn2)c(OC)c1 (stereo not shown) [Compound 279]
CNC(=O)c1c(F)cnc2c([C@H](C)CNc3cc(-c4cnc(OC(C)(C)C)nc4)ncn3)cccc12 [Compound 997]
CNC(=O)c1ccc([C@H](C)CNc2cc(-c3ccc(NC)nc3)ncn2)c(OC)c1 [Compound 358]
CNC(=O)c1ccnc2c([C@H](C)CNc3cc(-c4cnnc(C)c4)ncn3)ccc(F)c12 [Compound 969]
COc1ccsc1C(C)CNc1cc(-c2cnc3c(cnn3CC3CC3)c2)ncn1 (stereo not shown) [Compound 232]
CNC(=O)c1c(F)cnc2c([C@H](C)CNc3cc(-c4cnc(OC)c(OC)c4)ncn3)cccc12 [Compound 898]
Cc1ccc(-c2cc(NCC(C)c3cccc4c(Cl)cc(C)nc34)ncn2)cn1 (stereo not shown) [Compound 482]
COc1cc(C(=O)NC2CCC2)ccc1C(C)CNc1cc(-c2ccc(C)nc2)ncn1 (stereo not shown) [Compound 163]
COc1cc(-c2cnn(C)c2)ccc1C(C)CNc1cc(-c2ccc(C)nc2)ncn1 (stereo not shown) [Compound 421]
CNC(=O)c1ccnc2c([C@H](C)CNc3cc(-c4ccc(C(=O)O)cc4)ncn3)cccc12 [Compound 672]
CNCCNc1ccc(-c2cc(NC[C@@H](C)c3cccc4c(C(=O)NC)ccnc34)ncn2)cn1 [Compound 584]
CNC(=O)c1ccnc2c([C@H](C)CNc3cc(-c4ccc(C(=O)O)nc4)ncn3)cccc12 [Compound 673]
COc1ccccc1CCNc1cc(-c2ccc3c(cnn3C)c2)ncn1 [Compound 79]
CNC(=O)c1ccnc2c([C@H](C)CNc3cc(-c4ccc(C(=O)NC5CC5)cc4)ncn3)cccc12 [Compound 752]
COc1cc(N)ncc1C(C)CNc1cc(-c2ccc(N3CCN(C(C)=O)CC3)nc2)ncn1 (stereo not shown) [Compound 345]
COc1ccsc1C(C)CNc1cc(-c2cnc3c(cnn3C3CCN(C)CC3)c2)ncn1 (stereo not shown) [Compound 262]
CNC(=O)c1ccnc2c([C@H](C)CNc3cc(-c4cnnc(C)c4)ncn3)cccc12 [Compound 841]
Cc1ncc(-c2cc(NC[C@@H](C)c3ccnc4cccnc34)ncn2)cn1 [Compound 496]
CCOC(C)n1cc(-c2cc(NC[C@@H](C)c3cccc4c(C(=O)NC)c(F)cnc34)ncn2)cn1 (stereo partly shown) [Compound 784]
COCCn1ncc2cc(-c3cc(NCC(C)c4ccc(C(=O)NCC(F)(F)F)cc4OC)ncn3)cnc21 (stereo not shown) [Compound 220]
CNC(=O)c1ccnc2c([C@H](C)CNc3cc(-c4ccc(N5CCC(O)C5)nc4)ncn3)cccc12 (single isomer, unassigned) [Compound 980]
CNC(=O)c1ccnc2c([C@H](C)CNc3cc(-c4ccc(N5CCOC(C)C5)nc4)ncn3)cccc12 (single isomer, unassigned) [Compound 713]
CNC(=O)c1ccnc2c([C@H](C)CNc3cc(-c4ccc(NC5CCN(CC(F)F)CC5)nc4)ncn3)cccc12 [Compound 1083]
CC(CNc1cc(-c2cnc3c(cnn3CCO)c2)ncn1)c1ccnc2c1OCCO2 (stereo not shown) [Compound 444]
CNC(=O)c1ccc([C@H](C)CNc2cc(-c3ccc(C)nc3)ncn2)c(OC2CCC2)c1 [Compound 478]
CNC(=O)c1ccnc2c([C@H](C)CNc3cc(-c4ccc(C5(N)CC5)nc4)ncn3)cccc12 [Compound 939]
CNC(=O)c1c(F)cnc2c([C@H](C)CNc3cc(-c4ccc(C5(O)COC5)nc4)ncn3)cccc12 [Compound 1068]
CNC(=O)c1ccc(C(C)CNc2cc(-c3cnc4c(cnn4C(C)(C)C(=O)O)c3)ncn2)c(OC)c1 (stereo not shown) [Compound 284]
CCC(=O)c1ccc(C(C)CNc2cc(-c3ccc(C)nc3)ncn2)c(OC)c1 (stereo not shown) [Compound 300]
CNC(=O)c1c(F)cnc2c([C@H](C)CNc3cc(-c4ccc(C5CCC5)nc4)ncn3)cccc12 [Compound 855]
C[C@H](CNc1cc(-c2cnc3c(cnn3C3COC3)c2)ncn1)c1ccnc2c1OCC2 [Compound 417]
CCOc1ccccc1CCNc1cc(-c2ccc(N3CC[C@H](O)C3)nc2)ncn1 [Compound 98]
CCONC(=O)c1ccc(C(C)CNc2cc(-c3ccc(C)nc3)ncn2)c(OC)c1 (stereo not shown) [Compound 221]
CNC(=O)c1ccc([C@H](C)CNc2cc(-c3ccc(Nc4ccncc4)nc3)ncn2)c(OC)c1 [Compound 396]
CNC(=O)c1ccnc2c([C@H](C)CNc3cc(-c4ccc(C#N)c(F)c4)ncn3)cccc12 [Compound 871]
COC(=O)c1ccc(OC)c(C(C)CNc2cc(-c3ccc(C)nc3)ncn2)c1 (stereo not shown) [Compound 250]
CNC(=O)c1ccnc2c([C@H](C)CNc3cc(-c4ccc(OC5COC5)cc4)ncn3)cccc12 [Compound 748]
CNC(=O)c1ccnc2c([C@H](C)CNc3cc(N4CNC(=O)C4)ncn3)cccc12 [Compound 797]
CNC(=O)c1ccnc2c([C@H](C)CNc3cc(-c4ccc(CC5CCN(C(C)=O)CC5)nc4)ncn3)ccc(F)c12 [Compound 1018]
CC(=O)N1CCN(c2ccc(-c3cc(NCC(C)c4ccccc4O)ncn3)cn2)CC1 (stereo not shown) [Compound 136]
CNC(=O)c1ccnc2c([C@H](C)CNc3cc(-c4cc(C)nc(OC)c4)ncn3)cccc12 [Compound 863]
CNC(=O)c1ccc([C@H](C)CNc2cc(-c3ccc(N(C)CCO)nc3)ncn2)c(OC)c1 [Compound 365]
[2H]c1nc(NC[C@@H](C)c2cccc3c(C(=O)NC)ccnc23)cc(-c2cnc(C)nc2)n1 [Compound 647]
CCOc1cc(F)ccc1C(C)CNc1cc(-c2ccc(C)nc2)ncn1 (stereo not shown) [Compound 100]
CNC(=O)c1ccnc2c([C@H](C)CNc3cc(-c4cnc(OC)nc4)ncn3)ccc(F)c12 [Compound 1031]
CNC(=O)c1ccnc2c([C@H](C)CNc3cc(-c4ccc(N5CCN(CC(F)(F)F)CC5)nc4)ncn3)cccc12 [Compound 780]
CNC(=O)c1ccnc2c([C@H](C)CNc3cc(-c4ccc(CC5CCN(C(C)=O)CC5)nc4)ncn3)cccc12 [Compound 1007]
COc1ccc(C(C)CNc2cc(-c3ccc(C)nc3)ncn2)c(OC)n1 (stereo not shown) [Compound 466]
COc1ccccc1CCNc1cc(-c2cnc(N(C)C(=O)C(C)(C)C)c(C)c2)ncn1 [Compound 24]
COc1ncc(-c2cc(NC[C@@H](C)c3ccnc4c3OCCO4)ncn2)cc1F [Compound 533]
CNC(=O)c1ccnc2c([C@H](C)CNc3cc(N4CCn5ccnc5C4)ncn3)cccc12 [Compound 741]
CNC(=O)c1ccc(C(C)CNc2cc(-c3ccc4c(c3)c(C)nn4CCO)ncn2)c(OC)c1 (stereo not shown) [Compound 272]
CNC(=O)c1c(F)cnc2c([C@H](C)CNc3cc(-c4cnc(COC(C)C)nc4)ncn3)cccc12 [Compound 1015]
CNC(=O)c1ccnc2c([C@H](C)CNc3cc(-c4ccc(N5CCOCC5)nc4)ncn3)cccc12 [Compound 641]
CNC(=O)c1ccnc2c([C@H](C)CNc3cc(-c4cc(F)c(OC)c(F)c4)ncn3)cccc12 [Compound 824]
Cc1ccc(-c2cc(NCC(C)c3cncc4nccnc34)ncn2)cn1 (stereo not shown) [Compound 407]
CNC(=O)c1c(F)cnc2c([C@H](C)CNc3cc(-c4cnc(OC(C)C)nc4)ncn3)cccc12 [Compound 938]
CNC(=O)c1ccc(C(C)CNc2cc(-c3cc4cnn(C5COC5)c4cc3C)ncn2)c(OC)c1 (stereo not shown) [Compound 283]
C[C@H](CNc1cc(-c2ccc3ncccc3c2)ncn1)c1ccnc2c1OCC2 [Compound 480]
CNC(=O)c1ccnc2c([C@H](C)CNc3cc(-c4cnc(OC)s4)ncn3)cccc12 [Compound 779]
CNC(=O)c1ccnc2c([C@H](C)CNc3cc(-c4cncc(C)c4)ncn3)cccc12 [Compound 792]
COCCn1ncc2cc(-c3cc(NCC(C)c4cnccc4OC4CC4)ncn3)cnc21 (stereo not shown) [Compound 176]
C[C@H](CNc1cc(-c2cc(C(F)(F)F)c3ncccc3c2)ncn1)c1ccnc2c1OCC2 [Compound 591]
CNC(=O)c1ccnc2c([C@H](C)CNc3cc(-c4ccc5c(c4)CNC5=O)ncn3)cccc12 [Compound 758]
CNCCNc1ccc(-c2cc(NC[C@@H](C)c3ccccc3OC)ncn2)cn1 [Compound 205]
CCNc1ccc(-c2cc(NC[C@@H](C)c3cccc4c(C(=O)NC)c(F)cnc34)ncn2)cn1 [Compound 979]
C[C@H](CNc1cc(-c2cnc3c(cnn3C3COC3)c2)ncn1)c1ccnc2c1OCCO2 [Compound 493]
CNC(=O)c1ccnc2c([C@H](C)CNc3cc(-c4ccc(C(=O)NCCO)cc4)ncn3)cccc12 [Compound 753]
C[C@H](CNc1cc(-c2cnc3ccccc3c2)ncn1)c1ccnc2c1OCCO2 [Compound 559]
CC(=O)N1CCN(c2ccc(-c3cc(NCC(C)c4ccccc4OCc4ccccc4)ncn3)cn2)CC1 (stereo not shown) [Compound 135]
CNC(=O)c1ccnc2c([C@H](C)CNc3cc(-c4cnc(C(C)C)nc4)ncn3)ccc(F)c12 [Compound 854]
CNC(=O)c1ccnc2c([C@H](C)CNc3cc(-c4cnc(OC5CCC5)nc4)ncn3)ccc(F)c12 [Compound 982]

Same assay, conditions: 100 μM ATP; competitive tight-binding fit; listed as compound 538

Ki, ≤ 300 nM:
Cc1ccc(-c2cc(NC[C@@H](C)c3cccc4c3OC(CO)C4)ncn2)cn1 (single isomer, unassigned) [Compound 538]

Same assay, conditions: 100 μM ATP; competitive tight-binding fit; listed as compound 638

Ki, ≤ 300 nM:
CNC(=O)c1ccnc2c([C@H](C)CNc3cc(-c4ccc(C)nc4)ncn3)cc(F)c(F)c12 [Compound 638]
